Laboratory results as given in PMC6179991.
These are yes or no findings as the source states them, for the method shown. In cells and extracts the contact can be indirect. Binding can be weak; no strength is given. Where a sequence is shown, tags or fusion partners need not be part of it.

Target: rat EED-V5-His (pcDNA3.1-rEED-V5-His) (rat) (UniProt B5DF02)
Assay: co-IP; HEK293T cells transfected with pcDNA3.1-rEED-V5-His, LVI-Flag-HA-mSirt1 or both; lysis in 25 mM Tris pH 7.4, 150 mM NaCl, 1 mM EDTA, 1 mM EGTA, 1% Triton X-100; immunoprecipitation with V5 or HA antibody and protein A agarose overnight at 4 °C; blots probed for V5 or HA (reciprocal)

B1: Mouse Sirt1-FLAG-HA (Sirtuin 1) (enzyme, UniProt Q923E4-1 1-737)
chain: MADEVALALQAAGSPSAAAAMEAASQPADEPLRKRPRRDGPGLGRSPGEPSAAVAPAAAGCEAASAAAPAALWREAAGAAASAEREAPATAVAGDGDNGSGLRREPRAADDFDDDEGEEEDEAAAAAAAAAIGYRDNLLLTDGLLTNGFHSCESDDDDRTSHASSSDWTPRPRIGPYTFVQQHLMIGTDPRTILKDLLPETIPPPELDDMTLWQIVINILSEPPKRKKRKDINTIEDAVKLLQECKKIIVLTGAGVSVSCGIPDFRSRDGIYARLAVDFPDLPDPQAMFDIEYFRKDPRPFFKFAKEIYPGQFQPSLCHKFIALSDKEGKLLRNYTQNIDTLEQVAGIQRILQCHGSFATASCLICKYKVDCEAVRGDIFNQVVPRCPRCPADEPLAIMKPEIVFFGENLPEQFHRAMKYDKDEVDLLIVIGSSLKVRPVALIPSSIPHEVPQILINREPLPHLHFDVELLGDCDVIINELCHRLGGEYAKLCCNPVKLSEITEKPPRPQKELVHLSELPPTPLHISEDSSSPERTVPQDSSVIATLVDQATNNNVNDLEVSESSCVEEKPQEVQTSRNVENINVENPDFKAVGSSTADKNERTSVAETVRKCWPNRLAKEQISKRLEGNQYLFVPPNRYIFHGAEVYSDSEDDVLSSSSCGSNSDSGTCQSPSLEEPLEDESEIEEFYNGLEDDTERPECAGGSGFGADGGDQEVVNEAIATRQELTDVNYPSDKS
binding: binds
